20 molecules from the supplement of paper PMC10973195 can be followed below.

Structures are written as SMILES. ± gives the standard deviation of the averaged measurements. This is one part of the list. These are raw signals, not scaled to a control.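 A neuron, microglia and astrocyte co-culture models inflammatory neurodegeneration: bacterial LPS drives microglia-dependent neuron loss. Each compound was tested against DMSO vehicle wells on the same plates; BAY61-3606, a SYK inhibitor, was the reference neuroprotective control.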

The subject of the first assay is rat primary cerebellar neuron-glia coculture. Briefly: live neuron count (NeuO+) per image field (cells per field); higher = more surviving neurons. The conditions noted are these: LPS 0 ng/mL; 1 µM; treatment time 3 days. On the procedure: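 Primary rat (P3-7) cerebellar neuron-glia cocultures in 384-well plates were treated at DIV7 with 1 uM compound, then with or without 100 ng/mL LPS 30 min later, for 3 days. At DIV10 live cells were stained with Hoechst 33342, NeuO (live neurons), IB4-AF594 (microglia) and DRAQ7 (necrotic cells) and imaged at 10x (4 fields per well, IN Cell Analyzer 6000). Cells were classified with Cellpose/CellProfiler plus a Random Trees classifier. Values are per-well mean counts per image field (raw, not min-max normalised) and the median microglial FormFactor per image. Three technical replicates per repeat across 4 biological repeats; DMSO and BAY61-3606 serve as controls.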
`O=c1[nH]c2cc(Cl)ccc2c(O)c1-c1cccc(Oc2ccccc2)c1`: the live neuron count came to 2710 ± 400.
For the molecule `CN1CCN(c2ccc(-c3cccc(CN4CCOCC4)c3)cc2NC(=O)c2c[nH]c(=O)cc2C(F)(F)F)CC1`, the live neuron count amounted to 2570 ± 420.
With `CC(C)NCC(O)c1ccc(O)c(O)c1` (stereo not given), the live neuron count stood at 2620 ± 550.
The molecule `Cc1c(F)cc(C(=O)NC2CC2)cc1-c1ccc(C(=O)NCC(C)(C)C)cn1` showed a live neuron count of 2540 ± 450.
For the molecule `NS(=O)(=O)c1cc(C(=O)NCCOc2ccccc2)c(Cl)cc1Cl`, the live neuron count was 2610 ± 780.
In turn, `COc1cc(C(=O)NS(=O)(=O)c2ccccc2C)ccc1Cc1cn(C)c2ccc(NC(=O)OC3CCCC3)cc12` displayed a live neuron count of 3020 ± 460.
The molecule `COc1ccc2[nH]cc(CCNC(C)=O)c2c1` gave a live neuron count of 2480 ± 410.
In the case of `CC1(C)CC[C@]2(C(=O)O)CC[C@]3(C)[C@H](C(=O)C=C4[C@@]5(C)C=C(C#N)C(=O)C(C)(C)[C@@H]5CC[C@]43C)[C@@H]2C1`, the live neuron count worked out at 2710 ± 460.
Regarding `CCOC(=O)[C@H](CCc1ccccc1)N[C@@H](C)C(=O)N1CCC[C@H]1C(=O)O`, the live neuron count was found to be 2450 ± 740.
On to `O=C1Nc2ccc(I)cc2/C1=C/c1cc(Br)c(O)c(Br)c1`, for which the live neuron count was found to be 2470 ± 700.
In turn, `O=C(c1ccc(C(=O)N2CCC(N3CCCC3)CC2)c(Nc2ccccc2)c1)N1CCC(N2CCCC2)CC1` gave a live neuron count of 2600 ± 470.
For the molecule `O=C(/C=C/N1C[C@H]2C[C@@H]1CN2c1ccccn1)c1ccccc1O`, the live neuron count came to 2470 ± 330.
Still for that read-out and setting: then `COc1cc(-c2cc(-c3cccc(O)c3)cnc2N)cc(OC)c1OC`, with 2520 ± 520; and `O=C(NCC1(c2ccc(F)cc2)CCCC1)C1CCN(Cc2ccccc2)CC1`, with 2620 ± 440.
For `O=C(NCCCN1CCC2(CC1)OCc1ccccc12)[C@H]1CCCN1Cc1ccccc1`, the live neuron count came out at 2410 ± 560.
`Cc1nc(-c2ccccc2)sc1C(=O)Nc1ccc(S(N)(=O)=O)cc1` came in with a live neuron count of 2680 ± 430.
Molecule `CCCCCCCCCCCCC/C=C/[C@@H](O)[C@@H](N)COP(=O)(O)O` displayed a live neuron count of 2580 ± 380.
`c1ccc(-c2ccc(CSc3nnc(-c4ccc5c(c4)OCO5)o3)cc2)cc1` showed a live neuron count of 2610 ± 510.
In turn, `O=C(Oc1nsnc1N1CCCCC1)N1CCOCC1` had a live neuron count of 2710 ± 580.
The molecule `O=c1ccn([C@@H]2O[C@H](CO)[C@@H](O)[C@H]2O)c(=O)[nH]1` gave a live neuron count of 2720 ± 460.

Still in this assay, the particulars now being: LPS 100 ng/mL; 1 µM; treatment time 3 days.
Take `O=c1[nH]c2cc(Cl)ccc2c(O)c1-c1cccc(Oc2ccccc2)c1`: the live neuron count came to 423 ± 390.
Consider `CN1CCN(c2ccc(-c3cccc(CN4CCOCC4)c3)cc2NC(=O)c2c[nH]c(=O)cc2C(F)(F)F)CC1`, for which the live neuron count amounted to 824 ± 1000.
Molecule `CC(C)NCC(O)c1ccc(O)c(O)c1` (stereo not given) returned a live neuron count of 578 ± 520.
`Cc1c(F)cc(C(=O)NC2CC2)cc1-c1ccc(C(=O)NCC(C)(C)C)cn1`: the live neuron count was determined as 1840 ± 650.
The same measure, in the same setting: as for `NS(=O)(=O)c1cc(C(=O)NCCOc2ccccc2)c(Cl)cc1Cl`, the figure is 328 ± 400.
With `COc1cc(C(=O)NS(=O)(=O)c2ccccc2C)ccc1Cc1cn(C)c2ccc(NC(=O)OC3CCCC3)cc12`, the live neuron count amounted to 3180 ± 420.
Same read-out and setting: then `COc1ccc2[nH]cc(CCNC(C)=O)c2c1`, with 330 ± 220; and `CC1(C)CC[C@]2(C(=O)O)CC[C@]3(C)[C@H](C(=O)C=C4[C@@]5(C)C=C(C#N)C(=O)C(C)(C)[C@@H]5CC[C@]43C)[C@@H]2C1`, with 1850 ± 550.
Molecule `CCOC(=O)[C@H](CCc1ccccc1)N[C@@H](C)C(=O)N1CCC[C@H]1C(=O)O` had a live neuron count of 435 ± 610.
`O=C1Nc2ccc(I)cc2/C1=C/c1cc(Br)c(O)c(Br)c1` came in with a live neuron count of 312 ± 270.
Turning to `O=C(c1ccc(C(=O)N2CCC(N3CCCC3)CC2)c(Nc2ccccc2)c1)N1CCC(N2CCCC2)CC1`, the live neuron count was 425 ± 500.
As to `O=C(/C=C/N1C[C@H]2C[C@@H]1CN2c1ccccn1)c1ccccc1O`, the live neuron count worked out at 526 ± 510.
`COc1cc(-c2cc(-c3cccc(O)c3)cnc2N)cc(OC)c1OC` had a live neuron count of 576 ± 840.
Take `O=C(NCC1(c2ccc(F)cc2)CCCC1)C1CCN(Cc2ccccc2)CC1`: the live neuron count worked out at 261 ± 300.
Consider `O=C(NCCCN1CCC2(CC1)OCc1ccccc12)[C@H]1CCCN1Cc1ccccc1`, for which the live neuron count was 291 ± 270.
The molecule `Cc1nc(-c2ccccc2)sc1C(=O)Nc1ccc(S(N)(=O)=O)cc1` yielded a live neuron count of 533 ± 800.
On to `CCCCCCCCCCCCC/C=C/[C@@H](O)[C@@H](N)COP(=O)(O)O`, for which the live neuron count was 437 ± 400.
`c1ccc(-c2ccc(CSc3nnc(-c4ccc5c(c4)OCO5)o3)cc2)cc1` gave a live neuron count of 275 ± 130.
For `O=C(Oc1nsnc1N1CCCCC1)N1CCOCC1`, the live neuron count worked out at 243 ± 360.
Same read-out and setting: as for `O=c1ccn([C@@H]2O[C@H](CO)[C@@H](O)[C@H]2O)c(=O)[nH]1`, the figure is 277 ± 190.
